Assay results reported in PubChem BioAssay AID540256 (National Center for Advancing Translational Sciences (NCATS), 2011).
In all, about 300,000 compounds went through this assay and about 3,700 (1.2%) were called active. Inconclusive results, whose numbers are uncertain, are shown with a selection of clear calls. Calls come from the whole dose curve; tested in HEK293 cells. Where the call is inconclusive, the potency comes from a doubtful curve fit.

assay: qHTS for Inhibitors of binding or entry into cells for Lassa Virus; conditions: Lassa virus pseudotype entry inhibition, cell reporter; activity change, negative = inhibition: at 37.9 µM (top of the series) unless noted; note: nearly all actives have a fitted effect of over 50% in size
% is set by controls: 0 for no effect and ±100 for the full control effect; potency is the fitted concentration of half-maximal effect.

Compound	Potency	activity change, negative = inhibition
CCC(C(=O)Nc1ccccc1C(=O)OC)n1nc(C)c2c(C)n(-c3ccc(C)cc3)nc2c1=O (stereo not given)	inconclusive: 35.5 µM [inhibitor, single point]	–
COc1ccc(C(=O)Nc2cc3c4c(c2)C(C)C(=O)N4CCC3)cc1OC (stereo not given)	–	inactive: -12.5%
CC(=O)Oc1c(-c2ccc(Br)o2)oc2ccccc2c1=O	inconclusive: 7.08 µM [inhibitor, partial curve, poor fit]	–
CC(C)c1nnc(NC(=O)CC(C)c2ccccc2)s1 (stereo not given)	–	inactive: -6.27%
CN(C)c1nc(N(C)C)nc(N(C#N)CN2C(=O)c3ccccc3S2(=O)=O)n1	–	inactive: -4.15%
CCCCCCNC(=O)C(=O)NCCc1ccc(Cl)cc1	–	inactive: 3.99% [at 46.1 µM]
Cc1cc(-n2cnnn2)cc(C)c1S(=O)(=O)N(C)c1ccccc1	–	inactive: 0.745% [at 46.1 µM]
CCOc1ccc(CNCCc2ccc(S(N)(=O)=O)cc2)cc1	–	inactive: -10.5%
COc1ccc(NC(=O)CSCC(=O)Nc2ccccc2C(=O)N2CCCCC2)cc1	–	inactive: 3.53%
O=C(NCCCn1ccnc1)c1cc2ccccc2o1	–	inactive: 10.1%
CC(C)C[C@@H]1COc2cccc(NCCO)c2S(=O)(=O)N1	inconclusive: 31.5 µM [activator, partial curve, poor fit]	–
COCC(=O)OC1CCn2c1nc1c2C(=O)C(C)=C(NC(C)=O)C1=O (stereo not given)	active: 3.16 µM	–
C[C@@H](C(=O)Nc1ccc2ccccc2c1)[C@H]1C[C@]1(C)[C@H](NC(=O)OCc1ccccc1)c1ccccc1	inconclusive: 29.1 µM [inhibitor, single point]	–
C=CCc1cc(Cl)ccc1OCCn1ccnc1	–	inactive: 22.9% [at 46.1 µM]
CCCCN(CC)CCNC(=O)c1cn(-c2ccc(Cl)cc2)c(=O)c2ccccc12	inconclusive: 12.6 µM [inhibitor, single point]	–
COc1ccc(Cl)cc1NC(=O)CSc1nc(N2CCOCC2)nc(N2CCOCC2)n1	inconclusive: 35.5 µM [inhibitor, single point]	–
OCC1CCCN1C(=S)Nc1ccccc1 (stereo not given)	inconclusive: 6.51 µM [inhibitor, single point]	–
CCCCC(=O)Nc1ccc(C(=O)Nc2nc(CC(=O)OCC)cs2)cc1	inconclusive: 0.651 µM [inhibitor, full curve, poor fit]	–
CCOC(=O)c1c(C)[nH]c(C)c1C(=O)COC(=O)C1CCCN1S(=O)(=O)c1ccccc1F (stereo not given)	inconclusive: 7.08 µM [activator, partial curve, poor fit]	–
O=C(NCCc1ccc(Cl)cc1)c1cnccn1	–	inactive: 20.9% [at 46.1 µM]
O=C(Cn1c(=O)c2cc(Cl)ccc2n2nncc12)Nc1ccccc1	–	inactive: -3.63% [at 46.1 µM]
Cc1cc(NC(=O)c2ccccc2-c2ccccc2C(=O)O)no1	inconclusive: 3.98 µM [activator, full curve, poor fit]	–
COC(=O)c1ccc(C(=O)NC(=S)Nc2nc3c(s2)CCCC3)cc1	inconclusive: 35.5 µM [activator, single point]	–
Cc1cccc(OCC(=O)N2CCN(C(=O)c3ccc([N+](=O)[O-])cc3)CC2)c1	–	inactive: 6.02%

Compound	Potency	activity change, negative = inhibition
Cc1ccc([N+](=O)[O-])cc1NC(=O)c1ccccc1	–	inactive: 0.449%
CC(=O)c1ccccc1NC(=O)CCCNC(=O)c1ccc(Cl)cc1	–	inactive: -24.5% [at 46.1 µM]
CCc1ccc(NC(=O)c2sc3nc(C)c(Cl)c(C)c3c2N)cc1	–	inactive: 23.2% [at 46.1 µM]
O=C(NCc1ccc(-c2nc3ccccc3s2)cc1)c1ccco1	inconclusive: 11.2 µM [inhibitor, partial curve, poor fit]	–
O=C(COc1ncnc2scc(-c3ccc(Cl)cc3)c12)NCc1ccco1	–	inactive: -1.02%
CCOc1ccc(N(C(=O)c2snc(C(N)=O)c2N)C(C)C(=O)NC2CCCCC2)cc1 (stereo not given)	inconclusive: 22.4 µM [inhibitor, partial curve, poor fit]	–
Cc1ccc(OCC(O)CNS(=O)(=O)c2ccccc2C(=O)N2CCCCC2)cc1 (stereo not given)	inconclusive: 0.13 µM [activator, single point]	–
O=S1(=O)N[C@H](Cc2ccccc2)COc2cccc(F)c21	inconclusive: 0.177 µM [activator, full curve, poor fit]	–
COc1ccc2nc(-c3ccc(N)cc3)[nH]c2c1	inconclusive: 29.1 µM [inhibitor, single point]	–
COc1ccc(NC(=O)C(c2ccc(C)cc2)N(C)C(=O)Cc2cccs2)cc1 (stereo not given)	inconclusive: 10 µM [inhibitor, partial curve, poor fit]	–
O=C(O)c1cccc(S(=O)(=O)N2CCCC2)c1	–	inactive: -14.5% [at 14.3 µM]
CCc1ccccc1NC(=O)c1ccc(-n2c(C)ccc2C)cc1	inconclusive: 35.5 µM [inhibitor, single point]	–
COc1ccc(-c2ccc3c(N)c(C(=O)c4cccc(OC)c4)sc3n2)cc1	inconclusive: 0.206 µM [inhibitor, full curve, poor fit]	–
C/C(=N\NC(=O)Cc1csc(N2CCOCC2)n1)c1ccccc1	inconclusive: 32.6 µM [inhibitor, partial curve, poor fit]	–
O=C(CN1CCN(c2ccccc2)CC1)Nc1ccc(Oc2ccccc2)cc1	inconclusive: 32.6 µM [inhibitor, partial curve, poor fit]	–
CCOCC(=O)Nc1nc2ccc(S(C)(=O)=O)cc2s1	–	inactive: 0.943%
N#Cc1ccc(C(=O)OCc2cccc(S(=O)(=O)N3CCOCC3)c2)cc1	inconclusive: 1 µM [inhibitor, partial curve, poor fit]	–
CCOC(=O)CSc1nc2ccccc2c(=O)n1CCc1ccc(OC)c(OC)c1	inconclusive: 35.5 µM [inhibitor, single point]	–
O=C1NC(=O)N(c2cccc(Cl)c2)C(=O)/C1=C\c1ccc(Sc2nc3ccccc3[nH]2)o1	–	inactive: 0.897%
O=S(=O)(Nc1ccc(-c2nc3cccnc3s2)cc1)c1ccccc1F	–	inactive: 3.83%
N#CC(C#N)=NNc1ccc(-n2ccc(C(F)(F)F)n2)cc1	inconclusive: 7.08 µM [inhibitor, full curve, poor fit]	–
CN(CC(=O)Nc1ccccc1Cl)C(=O)c1cccc(S(=O)(=O)N2CCN(c3ccccc3)CC2)c1	inconclusive: 12.6 µM [inhibitor, single point]	–
Cc1ccc(C(=O)O)cc1-c1ccc(C=C2C(=O)c3ccccc3C2=O)o1	–	inactive: -0.6%
COc1cccc(/C=C/C(=O)OCC(=O)NC2CCCCCCC2)c1	inconclusive: 0.891 µM [inhibitor, single point]	–

Compound	Potency	activity change, negative = inhibition
CCOC(=O)c1ccc(N2CCN(c3cccc(Cl)c3)CC2)c(NC(=O)Nc2ccc(OC)cc2OC)c1	inconclusive: 11.2 µM [activator, partial curve]	–
N/C(=N\OC(=O)CSc1ccccc1)c1cccc([N+](=O)[O-])c1	–	inactive: 13.6%
COc1cc(/C=C/C(=O)OCC(=O)Nc2ccccc2Sc2ccc(Cl)cc2)ccc1O	inconclusive: 14.6 µM [inhibitor, single point]	–
CCc1ccc(-c2nc(CN3CCCC(C(=O)N4CCN(c5cc(Cl)ccc5C)CC4)C3)c(C)o2)cc1 (stereo not given)	inconclusive: 25.1 µM [inhibitor, single point]	–
O=C(N/N=C(\c1ccccc1)c1cccnc1)c1cccc(F)c1	inconclusive: 4.47 µM [inhibitor, partial curve, poor fit]	–
Cc1cc(-n2c(SCC(=O)NCc3cccs3)nc3n[nH]c(C)c3c2=N)ccc1Cl	inconclusive: 11.6 µM [inhibitor, partial curve, poor fit]	–
O=C(Nc1cc2c3c(c1)CC(=O)N3CCC2)c1ccc(Br)cc1	–	inactive: -3.48%
Cc1ccc(Cl)cc1N1CCN(C(=S)NCc2ccco2)CC1	inconclusive: 35.5 µM [inhibitor, single point]	–
O=C(Nc1nnc(-c2ccco2)s1)c1ccccc1	inconclusive: 18.3 µM [inhibitor, single point]	–
O=C(CCCc1ccccc1)Nc1cccc(C(=O)O)c1	inconclusive: 3.98 µM [inhibitor, partial curve, poor fit]	–
CCC1=Nc2cc(C(=O)NCc3ccco3)ccc2Sc2ccccc21	inconclusive: 8.2 µM [inhibitor, partial curve, poor fit]	–
COc1ccc(N2CC(C(=O)Nc3ccc(NC(C)=O)cc3)CC2=O)cc1 (stereo not given)	–	inactive: 2.01% [at 46.1 µM]
Cc1c(NC(=O)c2nn3c(C(F)(F)F)cc(-c4ccccc4)nc3c2Cl)c(=O)n(-c2ccccc2)n1C	inconclusive: 5.01 µM [inhibitor, partial curve, poor fit]	–
CCOc1cc(N2CCOCC2)c(OCC)cc1NC(=O)CCC1CCCC1	inconclusive: 12.6 µM [inhibitor, single point]	–
CCOc1cc(N2CCOCC2)c(OCC)cc1NC(=O)c1cc(-c2ccco2)nc2ccccc12	inconclusive: 13 µM [inhibitor, partial curve, poor fit]	–
Cc1ccc(-c2cc(C(=O)O)c3cc(Br)ccc3n2)s1	inconclusive: 2.51 µM [inhibitor, partial curve, poor fit]	–
CCn1c2ccccc2c2cc(/C=C(/C#N)C(N)=S)ccc21	inconclusive: 3.55 µM [inhibitor, full curve]	–
O=C(Nc1ccc2nc(SCCOc3ccccc3Cl)sc2c1)c1cccs1	–	inactive: -5.95% [at 46.1 µM]
Cc1noc2ncnc(Oc3cc(Cl)ccc3Cl)c12	–	inactive: 1.25% [at 46.1 µM]
C=C(C)COc1ccc2c3c(c(=O)oc2c1OCC(=C)C)CCC3	inconclusive: 32.6 µM [inhibitor, single point]	–
COc1ccc(/C=C/C(=O)c2ccc(C)c([N+](=O)[O-])c2)cc1O	inconclusive: 18.4 µM [inhibitor, single point]	–
CCOc1ccc(Nc2nc(NCC3CCCO3)c3ccccc3n2)cc1 (stereo not given)	inconclusive: 10 µM [inhibitor, partial curve, poor fit]	–

Some of the entries so far, with each value named.
CC(C)c1nnc(NC(=O)CC(C)c2ccccc2)s1 (stereo not given)
  activity change, negative = inhibition: inactive: -6.27%
CCCCN(CC)CCNC(=O)c1cn(-c2ccc(Cl)cc2)c(=O)c2ccccc12
  Potency: inconclusive: 12.6 µM [inhibitor, single point]
Cc1cccc(OCC(=O)N2CCN(C(=O)c3ccc([N+](=O)[O-])cc3)CC2)c1
  activity change, negative = inhibition: inactive: 6.02%
O=C(NCc1ccc(-c2nc3ccccc3s2)cc1)c1ccco1
  Potency: inconclusive: 11.2 µM [inhibitor, partial curve, poor fit]
